Data taken from patent US4430326A (University Patents, Inc., priority 1981, dated 1984).
Not every detail of the peptide structures is certain; ends, links or a residue may be inferred.

Columns and labels:
liver adenylate cyclase = liver adenylate cyclase activity in liver plasma membranes, glucagon alone or glucagon-analog mixtures; format: biochemical; conditions: for adenylate cyclase activation by glucagon-analog mixture: glucagon three to four times the 100% activation concentration of glucagon alone; for Relative Inhibitory Strength: (Ka observed - Ka glucagon alone)/1×10^-6 M antagonist, Ka = glucagon concentration inducing 50% adenylate cyclase activity
adenylate cyclase system = conditions: literature reports; cited from earlier work
endogenous glucagon = assay: blood glucose in streptozotocin-diabetic rats after intravenous bolus or infusion of the analog; format: in vivo, Male Wistar rats; conditions: for decrease in blood glucose compared with highest dose: FIG. 3

CSCC[C@H](NC(=O)[C@H](CC(C)C)NC(=O)[C@H](Cc1c[nH]c2ccccc12)NC(=O)[C@H](CCC(N)=O)NC(=O)[C@@H](NC(=O)[C@H](Cc1ccccc1)NC(=O)[C@H](CC(=O)O)NC(=O)[C@H](CCC(N)=O)NC(=O)[C@H](C)NC(=O)[C@H](CCCNC(=N)N)NC(=O)[C@H](CCCNC(=N)N)NC(=O)[C@H](CO)NC(=O)[C@H](CC(=O)O)NC(=O)[C@H](CC(C)C)NC(=O)[C@H](Cc1ccc(O)cc1)NC(=O)[C@H](CCCCNc1c([N+](=O)[O-])cc([N+](=O)[O-])cc1[N+](=O)[O-])NC(=O)[C@H](CO)NC(=O)[C@H](Cc1ccc(O)cc1)NC(=O)[C@H](CC(=O)O)NC(=O)[C@H](CO)NC(=O)[C@@H](NC(=O)[C@H](Cc1ccccc1)NC(=O)[C@@H](NC(=O)CNC(=O)[C@H](CCC(N)=O)NC(=O)[C@H](CO)NC(=O)[C@H](Cc1c[nH]cn1)NC(N)=O)[C@@H](C)O)[C@@H](C)O)C(C)C)C(=O)N[C@@H](CC(N)=O)C(=O)N[C@H](C(=O)O)[C@@H](C)O [[N^α -carbamoyl, N^ε -TNB]glucagon, N^ε -trinitrophenyl carbamyl glucagon, reference compound]
adenylate cyclase activation by glucagon-analog mixture (liver adenylate cyclase; 1 μM analog, FIG. 1): ~100%
Relative Inhibitory Strength (liver adenylate cyclase): 0.010
reported action on adenylate cyclase activity (agonist / antagonist) (adenylate cyclase system): agonists

CSCC[C@H](NC(=O)[C@H](CC(C)C)NC(=O)[C@H](Cc1c[nH]c2ccccc12)NC(=O)[C@H](CCC(N)=O)NC(=O)[C@@H](NC(=O)[C@H](Cc1ccccc1)NC(=O)[C@H](CC(=O)O)NC(=O)[C@H](CCC(N)=O)NC(=O)[C@H](C)NC(=O)[C@H](CCCNC(=N)N)NC(=O)[C@H](CCCNC(=N)N)NC(=O)[C@H](CO)NC(=O)[C@H](CC(=O)O)NC(=O)[C@H](CC(C)C)NC(=O)[C@H](Cc1ccc(O)cc1)NC(=O)[C@H](CCCCNC(=N)N)NC(=O)[C@H](CO)NC(=O)[C@H](Cc1ccc(O)cc1)NC(=O)[C@H](CC(=O)O)NC(=O)[C@H](CO)NC(=O)[C@@H](NC(=O)[C@H](Cc1ccccc1)NC(=O)[C@@H](NC(=O)CNC(=O)[C@H](CCC(N)=O)NC(=O)[C@H](CO)NC(=O)[C@H](Cc1c[nH]cn1)Nc1c([N+](=O)[O-])cc([N+](=O)[O-])cc1[N+](=O)[O-])[C@@H](C)O)[C@@H](C)O)C(C)C)C(=O)N[C@@H](CC(N)=O)C(=O)N[C@H](C(=O)O)[C@@H](C)O [[N^α -TNB, HArg^12]glucagon, [1-N^α -trinitrobenzene, 12-homoarginine]glucagon]
adenylate cyclase activity by glucagon-analog mixture (liver adenylate cyclase; 1 μM analog, glucagon over 100 times the 100%-activation concentration of glucagon alone, FIG. 1): about one-half the maximal adenylate cyclase activity
Relative Inhibitory Strength (liver adenylate cyclase): 0.540
reported action on adenylate cyclase activity (agonist / antagonist) (adenylate cyclase system): agonists
effect on blood glucose (endogenous glucagon; 1/25 and 1/100 the highest dose): no discernible effect
time for blood glucose to return (rebound) after single bolus (endogenous glucagon; bolus 1.0 mg/kg): 10 to 20 min
blood glucose decrease below baseline levels, sustained (endogenous glucagon; bolus 1.0 mg/kg then infusion 33 μg/kg·min for 60 min, after 5 min, for greater than 90 minutes): 30-55%
blood glucose as % of baseline (endogenous glucagon; bolus 1.0 mg/kg then infusion 33 μg/kg·min for 60 min, at 5 min, tail blood): 67 % of baseline
fall of mean blood glucose below baseline levels (endogenous glucagon; bolus 1.0 mg/kg, five minutes after administration, FIG. 2): 28%
decrease in blood glucose compared with highest dose (endogenous glucagon; one-half dose: 0.5 mg/kg bolus, 17 μg/kg·min for 60 min): comparable decreases in blood glucose
decrease in blood glucose compared with highest dose (endogenous glucagon; one-tenth dose: 0.1 mg/kg bolus, 3.4 μg/kg·min): comparable decreases in blood glucose

CSCC[C@H](NC(=O)[C@H](CC(C)C)NC(=O)[C@H](Cc1c[nH]c2ccccc12)NC(=O)[C@H](CCC(N)=O)NC(=O)[C@@H](NC(=O)[C@H](Cc1ccccc1)NC(=O)[C@H](CC(=O)O)NC(=O)[C@H](CCC(N)=O)NC(=O)[C@H](C)NC(=O)[C@H](CCCNC(=N)N)NC(=O)[C@H](CCCNC(=N)N)NC(=O)[C@H](CO)NC(=O)[C@H](CC(=O)O)NC(=O)[C@H](CC(C)C)NC(=O)[C@H](Cc1ccc(O)cc1)NC(=O)[C@H](CCCCNC(=N)N)NC(=O)[C@H](CO)NC(=O)[C@H](Cc1ccc(O)cc1)NC(=O)[C@H](CC(=O)O)NC(=O)[C@H](CO)NC(=O)[C@@H](NC(=O)[C@H](Cc1ccccc1)NC(=O)[C@@H](NC(=O)CNC(=O)[C@H](CCC(N)=O)NC(=O)[C@H](CO)Nc1c([N+](=O)[O-])cc([N+](=O)[O-])cc1[N+](=O)[O-])[C@@H](C)O)[C@@H](C)O)C(C)C)C(=O)N[C@@H](CC(N)=O)C(=O)N[C@H](C(=O)O)[C@@H](C)O [[dHis^1][N^α -TNB, HArg^12]glucagon, [1-des-histidine][2-N^α -trinitrobenzene, 12-homoarginine]glucagon]
adenylate cyclase activation by glucagon-analog mixture (liver adenylate cyclase; 1 μM analog, FIG. 1): < 100%
Relative Inhibitory Strength (liver adenylate cyclase): 0.096
